# Results of single-concentration screens

Protein sequences, listed by entry. Tags and fused reporters are not part of them. Residues count along the entry.
UniProt P9WNZ1, whole entry: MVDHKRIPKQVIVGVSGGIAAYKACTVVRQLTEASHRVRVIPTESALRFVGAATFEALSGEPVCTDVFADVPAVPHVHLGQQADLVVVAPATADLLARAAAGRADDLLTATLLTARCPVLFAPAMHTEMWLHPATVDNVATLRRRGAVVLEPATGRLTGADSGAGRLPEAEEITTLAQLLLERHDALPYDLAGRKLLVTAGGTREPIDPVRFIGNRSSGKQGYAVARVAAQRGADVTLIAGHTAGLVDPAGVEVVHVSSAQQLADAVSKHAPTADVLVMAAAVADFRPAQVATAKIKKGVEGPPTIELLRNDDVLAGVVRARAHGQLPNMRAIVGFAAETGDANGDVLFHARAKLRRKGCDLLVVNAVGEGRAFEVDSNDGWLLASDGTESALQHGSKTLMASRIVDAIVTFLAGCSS
UniProt I6X8D2, whole entry: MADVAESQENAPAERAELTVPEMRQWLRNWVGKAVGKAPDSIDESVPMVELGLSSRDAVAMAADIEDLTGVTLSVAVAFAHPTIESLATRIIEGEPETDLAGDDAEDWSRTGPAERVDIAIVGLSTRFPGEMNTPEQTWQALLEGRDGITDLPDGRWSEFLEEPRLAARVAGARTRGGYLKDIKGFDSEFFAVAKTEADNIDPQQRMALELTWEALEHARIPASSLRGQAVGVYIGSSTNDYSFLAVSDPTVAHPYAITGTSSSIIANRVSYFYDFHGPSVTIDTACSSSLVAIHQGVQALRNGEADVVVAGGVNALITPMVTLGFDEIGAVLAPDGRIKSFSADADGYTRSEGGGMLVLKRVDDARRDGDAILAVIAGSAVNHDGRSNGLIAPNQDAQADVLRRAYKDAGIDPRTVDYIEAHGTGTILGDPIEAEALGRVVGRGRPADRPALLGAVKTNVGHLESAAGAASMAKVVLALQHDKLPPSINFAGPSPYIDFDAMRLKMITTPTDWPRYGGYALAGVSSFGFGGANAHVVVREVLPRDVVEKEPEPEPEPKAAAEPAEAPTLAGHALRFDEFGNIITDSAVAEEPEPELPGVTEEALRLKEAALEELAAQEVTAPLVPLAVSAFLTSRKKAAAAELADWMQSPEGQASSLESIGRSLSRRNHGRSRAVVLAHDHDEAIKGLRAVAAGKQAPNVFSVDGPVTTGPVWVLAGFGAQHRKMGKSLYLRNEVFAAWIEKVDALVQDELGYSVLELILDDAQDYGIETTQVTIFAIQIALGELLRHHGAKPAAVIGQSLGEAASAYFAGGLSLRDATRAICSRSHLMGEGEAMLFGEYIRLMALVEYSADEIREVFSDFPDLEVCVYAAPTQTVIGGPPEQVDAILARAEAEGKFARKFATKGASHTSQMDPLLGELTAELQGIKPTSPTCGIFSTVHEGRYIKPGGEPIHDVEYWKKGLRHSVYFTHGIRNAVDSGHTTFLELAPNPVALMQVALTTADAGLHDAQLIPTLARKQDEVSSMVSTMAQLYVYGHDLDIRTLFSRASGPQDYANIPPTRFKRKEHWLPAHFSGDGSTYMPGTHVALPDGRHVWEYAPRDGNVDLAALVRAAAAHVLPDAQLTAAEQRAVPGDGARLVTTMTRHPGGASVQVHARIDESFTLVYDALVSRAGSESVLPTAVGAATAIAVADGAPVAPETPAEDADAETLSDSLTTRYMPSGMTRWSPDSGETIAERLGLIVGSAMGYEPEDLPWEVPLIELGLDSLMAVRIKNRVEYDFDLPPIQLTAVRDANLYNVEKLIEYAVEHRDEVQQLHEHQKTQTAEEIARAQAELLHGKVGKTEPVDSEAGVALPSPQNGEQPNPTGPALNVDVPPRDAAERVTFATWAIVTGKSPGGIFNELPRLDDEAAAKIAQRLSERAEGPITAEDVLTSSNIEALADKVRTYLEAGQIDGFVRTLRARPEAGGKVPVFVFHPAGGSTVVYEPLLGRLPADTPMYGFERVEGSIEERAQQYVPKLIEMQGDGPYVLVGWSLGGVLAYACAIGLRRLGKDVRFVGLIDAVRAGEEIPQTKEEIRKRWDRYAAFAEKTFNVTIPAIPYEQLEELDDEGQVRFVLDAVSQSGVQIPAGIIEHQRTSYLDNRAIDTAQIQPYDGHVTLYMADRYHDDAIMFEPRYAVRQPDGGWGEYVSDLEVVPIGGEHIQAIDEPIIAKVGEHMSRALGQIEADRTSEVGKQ
UniProt P9WPC5, whole entry: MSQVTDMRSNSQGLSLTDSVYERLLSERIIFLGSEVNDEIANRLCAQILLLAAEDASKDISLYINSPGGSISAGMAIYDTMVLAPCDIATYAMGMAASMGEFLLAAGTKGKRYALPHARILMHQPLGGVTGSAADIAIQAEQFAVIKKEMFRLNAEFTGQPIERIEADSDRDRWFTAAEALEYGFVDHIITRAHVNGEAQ
UniProt P9WPC3, whole entry partner: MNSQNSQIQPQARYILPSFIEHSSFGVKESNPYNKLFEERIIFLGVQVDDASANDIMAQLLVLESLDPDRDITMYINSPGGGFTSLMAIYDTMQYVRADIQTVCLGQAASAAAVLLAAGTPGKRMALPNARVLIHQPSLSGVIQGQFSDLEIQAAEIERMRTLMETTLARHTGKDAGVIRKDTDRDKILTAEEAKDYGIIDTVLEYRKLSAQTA
UniProt Q4DA54, 1-478: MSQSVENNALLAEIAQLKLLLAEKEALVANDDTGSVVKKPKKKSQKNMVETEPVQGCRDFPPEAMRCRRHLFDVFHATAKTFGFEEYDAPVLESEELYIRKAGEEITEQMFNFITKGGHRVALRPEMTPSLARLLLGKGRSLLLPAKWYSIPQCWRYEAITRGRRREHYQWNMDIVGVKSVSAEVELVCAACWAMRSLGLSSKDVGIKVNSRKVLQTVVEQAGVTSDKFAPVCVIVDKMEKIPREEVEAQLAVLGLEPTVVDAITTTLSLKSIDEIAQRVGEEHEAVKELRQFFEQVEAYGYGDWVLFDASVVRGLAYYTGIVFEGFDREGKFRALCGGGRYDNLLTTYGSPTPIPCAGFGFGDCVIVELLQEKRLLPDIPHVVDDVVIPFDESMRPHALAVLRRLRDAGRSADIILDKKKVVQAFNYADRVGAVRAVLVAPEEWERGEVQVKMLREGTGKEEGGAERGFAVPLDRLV

The filed quantity is “Percent Effect” (%).
The record does not define 0% and 100%; most values in the screen are far below 50% and negative numbers occur (in some assays of this library far below -100).
Compounds were drawn at random from those tested, without regard to their results.
Two or more numbers in one place are separate tests of the same structure; such repeats can differ widely.

A: 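Coenzyme A biosynthesis protein CoaBC, Mycobacterium tuberculosis (UniProt P9WNZ1). Enzyme assay of CoaBC with a phosphate dye (Biomol Green) read at 650 nm. Concentration: 30 µM. Direction is inferred from only a few compounds that gave an IC50; most scored high, so higher reads as stronger inhibition. Most strong results did not repeat in a second test. Of about 67,000 compounds tested this way, about 40 (0.06%) reached 50% or more in at least one test.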
B: 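Cell assay of Leishmania donovani living inside macrophages; the read-out is not stated. Tested at 30 µM. Direction is inferred from retests: higher values go with stronger inhibition. Size under these conditions: about 69,000 compounds, about 1,000 of them at 50% or above in at least one test.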
C: 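Polyketide synthase Pks13, Mycobacterium tuberculosis (UniProt I6X8D2). Enzyme assay of the thioesterase domain of polyketide synthase 13; the read-out is not stated. Concentration: 30 µM. The record gives no direction; the compounds picked for IC50 retests had high values, so higher reads as stronger inhibition. About 67,000 compounds were tested under these conditions; 0.46% (about 300) showed 50% or more at least once.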
D: 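ClpP1P2, Mycobacterium tuberculosis (UniProt P9WPC5 and UniProt P9WPC3). Protease assay of ClpP1P2, read by the AMC dye that it sets free. Concentration: 50 µM. Higher reads as stronger inhibition, judged from the few compounds that gave an IC50. Most other retested compounds had strongly negative values. About 69,000 compounds were tested under these conditions; 0.015% (about 10) showed 50% or more at least once.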
E: 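Histidine-tRNA ligase, Trypanosoma cruzi CL Brener (UniProt Q4DA54). Enzyme assay of histidyl-tRNA synthetase; the read-out is not stated. Tested at 30 µM. The record gives no direction; compounds that gave an IC50 in retests scored well above the rest, so higher reads as stronger inhibition. Size under these conditions: about 69,000 compounds, about 31 of them at 50% or above in at least one test.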

compound: Cc1nccnc1N1C[C@H](NC(=O)CNS(C)(=O)=O)[C@@H](C2CC2)C1
A: 8.182
B: 8.886
C: -14.49
D: -6.802
E: 2.703

compound: COCCOc1ccccc1C(=O)N1CCCC(c2cc(C)[nH]n2)C1 (stereo not drawn)
A: 1.513
B: 4.151
C: -10.84
D: -27.26
E: 7.267

compound: COc1ccc2c(c1)nc1n2[C@@H](CNCc2ccccc2)COC1
A: 6.998
B: -8.641
C: -9.366
D: -7.428
E: 4.95

compound: O=C(NCC1CCCN1Cc1ccccc1)NCC1(O)CCC1 (stereo not drawn)
A: -0.2404
B: -4.991
C: 2.396
D: 11.17
E: 0

compound: Cl.NC(=O)C(c1ccc(F)cc1)N1CCN(CCO)CC1 (stereo not drawn)
B: 6.679

compound: Cc1noc(C2CN(Cc3ccc4c(c3)CCO4)C2)n1.O=C(O)C(=O)O
B: 28.35 and 26.72

compound: CCCNc1ccc(C(=O)NCCc2cccc(Cl)c2)cn1
A: 5.097
B: -18.05
C: 19.43
D: -3.483
E: 10.23

compound: COc1nc(N2CCNCC2)ncc1Br
A: -13.72
B: 28.31
C: -35.75
D: 5.081
E: 3.922

compound: CN(Cc1ccccc1)C(=O)CN1CCOC(Cn2cncn2)C1 (stereo not drawn)
A: 0.5249
B: 7.85
C: 4.326
D: -6.763
E: 4.571

compound: Cc1cc2[nH]cc(C(=O)N3CCCCC3c3ccc(F)cc3)c(=O)n2n1 (stereo not drawn)
A: 4.37
B: 54.57
C: -26.45
D: 2.505
E: -3.352

compound: CN(C)CCCNC(=O)C1CC(=O)N(c2n[nH]c3cccc(F)c23)C1 (stereo not drawn)
A: 0.2525
B: 8.428
C: -38.79
D: -0.9108
E: 2.924

compound: CCC(=O)Nc1nnc(CCCOc2ccccc2)s1
A: -0.1346
B: -5.194
C: -32.53
D: 3.162
E: -0.5464

compound: COC(=O)C(c1cc(F)ccc1F)N(C)C(=O)c1csnn1 (stereo not drawn)
A: 4.178
B: 0.5146
C: -4.301
D: 10.57
E: 1.88

compound: CNC(=O)C1CCN(CC(=O)Nc2cc(C(C)C)no2)CC1
A: -8.847
B: 21.46
C: -8.191
D: -8.486
E: 0.2849

compound: O=C(O)C(F)(F)F.O=C1CCCN1Cc1nnn2c1CN(c1cccnc1)CCC2
B: 42.02

compound: CCc1cc(=O)n(CC(=O)N2CCCC2)c(-c2cccc(F)c2)n1
A: 2.041
B: 11.01
C: -16.17
D: -13.4
E: 6.696

compound: CCCc1ccc(N2CCN(Cc3nc4ccccc4n3C)CC2)cc1
A: 13.65
B: 16.13
C: -2.504
D: 25.66
E: 2.062

compound: CN1CCc2c(C#N)c(NCc3cccnc3)n3cnnc3c2C1.Cl
B: 5.807 and 0.6573

compound: Cc1cnn(C2CN(c3nc(C)cc(N(C)C)n3)C2)c1
A: -2.195
B: 24.16
C: -26.44
D: 3.446
E: 6.494

compound: CN1CC[C@H](c2nnc(Cc3c[nH]c4ccccc34)o2)C1
A: -8.055
B: 27.29
C: -28.32
D: -4.698
E: -0.4975

compound: CN(Cc1ccccc1)CC(C)(C)NC(=O)c1cnccn1
A: 1.489
B: -23.59
C: -7.841
D: -9.565
E: 7.514

compound: CC(NC(=O)NCc1cccnc1N(C)C)c1cccs1 (stereo not drawn)
A: 7.905
B: -7.455
C: -9.796
D: 1.416
E: 7.463

compound: Cc1nc2[nH]cnc(Nc3ccn(C)n3)c-2n1
A: 4.43
B: -6.289
C: 18.8
D: -6.754
E: 2.484

compound: O=C(O)C(=O)O.c1coc(CN2CCC(c3ccc4c(c3)OCO4)CC2)c1
B: 36.4

compound: N[C@H]1CN(CCCOc2ccccc2)C[C@@H]1C1CC1
A: -18.31
B: 66.02
C: -29.56
D: -4.368
E: 1.571

compound: CC(C)(O)CN1CCN(C(=O)c2cccn2Cc2ccccc2)CC1
A: 4.669
B: 3.846
C: -0.9057
D: 13.07
E: 11.67

compound: Cc1cc(C(=O)NC2(c3cccc(F)c3)CCOCC2)no1
A: -0.609
B: -9.892
C: -14.03
D: -12.45
E: 2.976

compound: [H][C@@]12CS(=O)(=O)C[C@]1([H])N(C(=O)c1cn3ccsc3n1)CCN2CC1CC1
B: 23.96

compound: C[C@H](c1ccc(F)cc1)n1c(C2CCN(C)CC2)n[nH]c1=O
A: -4.797
B: 20.75
C: -7.614
D: -8.373
E: 2.299

Source: ChEMBL document CHEMBL3988442, “University of Dundee, Small-Polar-MMV Screening Library” (2021).